Data from the supplement of paper PMC12067093, “Discovery and optimisation of a covalent ligand for TRIM25 and its application to targeted protein ubiquitination” (Chemical Science, 2025).
This is one part of the list.

Amino acid sequences for entries named in this document (tags omitted). A change or cut given only in a name is not applied to a line headed by its entry.
UniProt Q9BTE3: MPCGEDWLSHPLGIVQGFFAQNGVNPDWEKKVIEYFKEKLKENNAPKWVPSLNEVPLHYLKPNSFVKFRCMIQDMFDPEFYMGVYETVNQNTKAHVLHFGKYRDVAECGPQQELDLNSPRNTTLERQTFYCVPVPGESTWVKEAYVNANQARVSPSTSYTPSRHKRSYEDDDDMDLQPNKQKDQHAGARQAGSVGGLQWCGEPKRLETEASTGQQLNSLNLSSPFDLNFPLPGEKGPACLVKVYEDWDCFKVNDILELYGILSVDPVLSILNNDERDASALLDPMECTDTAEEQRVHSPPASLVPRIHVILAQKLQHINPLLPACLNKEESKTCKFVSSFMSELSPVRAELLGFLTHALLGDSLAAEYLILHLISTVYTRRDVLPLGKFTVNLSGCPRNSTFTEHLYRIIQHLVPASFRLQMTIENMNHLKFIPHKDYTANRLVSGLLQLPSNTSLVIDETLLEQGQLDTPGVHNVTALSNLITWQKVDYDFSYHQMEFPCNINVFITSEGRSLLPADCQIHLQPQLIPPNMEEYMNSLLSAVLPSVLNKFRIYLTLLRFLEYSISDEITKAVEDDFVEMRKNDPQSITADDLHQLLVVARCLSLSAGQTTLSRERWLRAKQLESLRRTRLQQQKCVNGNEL
UniProt P33991: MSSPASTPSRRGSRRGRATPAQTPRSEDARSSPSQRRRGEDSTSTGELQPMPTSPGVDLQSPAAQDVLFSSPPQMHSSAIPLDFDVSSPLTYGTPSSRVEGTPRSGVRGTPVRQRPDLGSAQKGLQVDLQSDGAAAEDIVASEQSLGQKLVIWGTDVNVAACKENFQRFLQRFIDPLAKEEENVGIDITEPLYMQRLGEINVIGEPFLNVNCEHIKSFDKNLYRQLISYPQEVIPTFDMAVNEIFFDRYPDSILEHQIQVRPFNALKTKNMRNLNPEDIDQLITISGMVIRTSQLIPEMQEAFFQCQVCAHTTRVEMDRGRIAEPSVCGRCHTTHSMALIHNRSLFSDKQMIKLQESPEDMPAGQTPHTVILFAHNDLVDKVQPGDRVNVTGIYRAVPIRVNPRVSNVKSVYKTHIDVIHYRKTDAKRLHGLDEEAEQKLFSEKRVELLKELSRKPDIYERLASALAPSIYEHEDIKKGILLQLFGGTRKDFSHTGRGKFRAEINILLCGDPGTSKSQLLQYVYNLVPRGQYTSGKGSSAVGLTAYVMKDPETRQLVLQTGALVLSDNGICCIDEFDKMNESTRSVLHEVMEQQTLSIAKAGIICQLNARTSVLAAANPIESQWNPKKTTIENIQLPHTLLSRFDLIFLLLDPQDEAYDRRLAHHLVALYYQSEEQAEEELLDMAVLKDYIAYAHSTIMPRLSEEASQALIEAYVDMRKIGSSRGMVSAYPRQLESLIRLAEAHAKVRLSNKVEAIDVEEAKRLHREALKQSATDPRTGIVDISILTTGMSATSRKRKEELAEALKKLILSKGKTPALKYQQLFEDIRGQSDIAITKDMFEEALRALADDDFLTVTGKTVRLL
UniProt P25205: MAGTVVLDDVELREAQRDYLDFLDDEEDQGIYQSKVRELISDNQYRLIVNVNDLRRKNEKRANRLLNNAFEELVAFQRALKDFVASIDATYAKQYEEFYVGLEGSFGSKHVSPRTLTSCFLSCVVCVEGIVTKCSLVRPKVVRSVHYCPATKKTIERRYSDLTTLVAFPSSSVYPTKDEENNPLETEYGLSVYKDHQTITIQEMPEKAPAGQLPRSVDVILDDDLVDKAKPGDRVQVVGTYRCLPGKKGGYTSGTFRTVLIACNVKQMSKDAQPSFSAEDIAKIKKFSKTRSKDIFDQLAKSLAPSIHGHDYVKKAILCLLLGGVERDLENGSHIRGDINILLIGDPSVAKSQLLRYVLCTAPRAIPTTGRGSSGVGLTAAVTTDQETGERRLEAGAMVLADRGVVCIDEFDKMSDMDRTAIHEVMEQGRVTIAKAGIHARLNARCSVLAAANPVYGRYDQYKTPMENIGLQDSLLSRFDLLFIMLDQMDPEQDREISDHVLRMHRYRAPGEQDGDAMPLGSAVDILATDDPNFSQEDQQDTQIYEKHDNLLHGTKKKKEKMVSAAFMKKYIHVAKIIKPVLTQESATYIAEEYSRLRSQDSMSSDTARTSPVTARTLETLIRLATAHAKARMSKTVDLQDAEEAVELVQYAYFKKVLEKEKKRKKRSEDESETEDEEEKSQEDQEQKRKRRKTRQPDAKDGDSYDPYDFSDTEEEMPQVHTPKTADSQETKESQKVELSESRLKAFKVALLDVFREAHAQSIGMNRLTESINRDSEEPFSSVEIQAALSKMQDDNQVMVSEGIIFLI
UniProt Q8N6R0: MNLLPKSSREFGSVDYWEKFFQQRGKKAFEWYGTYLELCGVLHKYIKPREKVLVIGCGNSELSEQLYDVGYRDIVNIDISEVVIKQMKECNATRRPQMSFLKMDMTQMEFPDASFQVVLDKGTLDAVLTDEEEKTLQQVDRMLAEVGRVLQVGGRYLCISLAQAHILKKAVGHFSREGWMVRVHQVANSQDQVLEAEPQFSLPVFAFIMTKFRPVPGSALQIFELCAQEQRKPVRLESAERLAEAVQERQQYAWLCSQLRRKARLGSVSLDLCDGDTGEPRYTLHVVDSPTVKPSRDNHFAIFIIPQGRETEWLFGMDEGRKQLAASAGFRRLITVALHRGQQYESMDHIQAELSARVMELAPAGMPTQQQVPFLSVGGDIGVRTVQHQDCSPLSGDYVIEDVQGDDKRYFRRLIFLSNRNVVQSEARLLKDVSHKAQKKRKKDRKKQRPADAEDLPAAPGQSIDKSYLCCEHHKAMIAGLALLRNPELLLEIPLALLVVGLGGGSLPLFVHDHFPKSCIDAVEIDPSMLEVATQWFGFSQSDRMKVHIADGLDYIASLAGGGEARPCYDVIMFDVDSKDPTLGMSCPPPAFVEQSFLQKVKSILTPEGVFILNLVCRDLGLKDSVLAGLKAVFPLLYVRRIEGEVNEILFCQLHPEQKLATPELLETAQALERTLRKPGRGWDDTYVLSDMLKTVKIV
UniProt P50579: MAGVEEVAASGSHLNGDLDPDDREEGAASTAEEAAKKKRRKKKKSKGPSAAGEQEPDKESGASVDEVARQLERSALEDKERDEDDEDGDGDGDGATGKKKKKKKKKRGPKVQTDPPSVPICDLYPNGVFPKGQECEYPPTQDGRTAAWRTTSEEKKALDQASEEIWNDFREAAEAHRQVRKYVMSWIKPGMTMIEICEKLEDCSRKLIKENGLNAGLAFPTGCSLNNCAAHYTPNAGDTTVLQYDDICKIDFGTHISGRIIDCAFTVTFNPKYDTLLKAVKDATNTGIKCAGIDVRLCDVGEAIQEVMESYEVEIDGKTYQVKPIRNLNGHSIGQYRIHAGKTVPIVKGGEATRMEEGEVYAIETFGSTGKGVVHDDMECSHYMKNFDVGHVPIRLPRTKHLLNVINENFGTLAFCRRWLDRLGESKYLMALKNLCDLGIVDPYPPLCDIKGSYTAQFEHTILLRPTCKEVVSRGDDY
UniProt P33992: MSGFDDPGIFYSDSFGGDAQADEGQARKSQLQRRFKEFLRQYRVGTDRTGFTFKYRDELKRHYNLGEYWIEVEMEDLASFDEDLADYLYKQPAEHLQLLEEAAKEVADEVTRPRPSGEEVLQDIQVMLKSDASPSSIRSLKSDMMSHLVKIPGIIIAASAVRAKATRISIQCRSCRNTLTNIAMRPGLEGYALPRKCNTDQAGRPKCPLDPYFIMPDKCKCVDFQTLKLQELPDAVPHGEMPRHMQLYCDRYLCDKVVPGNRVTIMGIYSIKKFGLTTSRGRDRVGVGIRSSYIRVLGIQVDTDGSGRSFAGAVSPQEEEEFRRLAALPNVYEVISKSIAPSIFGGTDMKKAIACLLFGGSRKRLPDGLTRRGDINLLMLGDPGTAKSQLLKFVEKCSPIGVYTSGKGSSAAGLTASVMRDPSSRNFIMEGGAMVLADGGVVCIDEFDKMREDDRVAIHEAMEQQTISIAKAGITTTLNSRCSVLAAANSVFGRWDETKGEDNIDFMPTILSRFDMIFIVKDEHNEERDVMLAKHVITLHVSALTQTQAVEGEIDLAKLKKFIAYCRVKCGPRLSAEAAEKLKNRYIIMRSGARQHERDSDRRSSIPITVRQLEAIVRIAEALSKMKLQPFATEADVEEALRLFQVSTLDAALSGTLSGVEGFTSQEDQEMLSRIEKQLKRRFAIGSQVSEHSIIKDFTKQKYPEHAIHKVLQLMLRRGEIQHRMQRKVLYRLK
UniProt Q14676: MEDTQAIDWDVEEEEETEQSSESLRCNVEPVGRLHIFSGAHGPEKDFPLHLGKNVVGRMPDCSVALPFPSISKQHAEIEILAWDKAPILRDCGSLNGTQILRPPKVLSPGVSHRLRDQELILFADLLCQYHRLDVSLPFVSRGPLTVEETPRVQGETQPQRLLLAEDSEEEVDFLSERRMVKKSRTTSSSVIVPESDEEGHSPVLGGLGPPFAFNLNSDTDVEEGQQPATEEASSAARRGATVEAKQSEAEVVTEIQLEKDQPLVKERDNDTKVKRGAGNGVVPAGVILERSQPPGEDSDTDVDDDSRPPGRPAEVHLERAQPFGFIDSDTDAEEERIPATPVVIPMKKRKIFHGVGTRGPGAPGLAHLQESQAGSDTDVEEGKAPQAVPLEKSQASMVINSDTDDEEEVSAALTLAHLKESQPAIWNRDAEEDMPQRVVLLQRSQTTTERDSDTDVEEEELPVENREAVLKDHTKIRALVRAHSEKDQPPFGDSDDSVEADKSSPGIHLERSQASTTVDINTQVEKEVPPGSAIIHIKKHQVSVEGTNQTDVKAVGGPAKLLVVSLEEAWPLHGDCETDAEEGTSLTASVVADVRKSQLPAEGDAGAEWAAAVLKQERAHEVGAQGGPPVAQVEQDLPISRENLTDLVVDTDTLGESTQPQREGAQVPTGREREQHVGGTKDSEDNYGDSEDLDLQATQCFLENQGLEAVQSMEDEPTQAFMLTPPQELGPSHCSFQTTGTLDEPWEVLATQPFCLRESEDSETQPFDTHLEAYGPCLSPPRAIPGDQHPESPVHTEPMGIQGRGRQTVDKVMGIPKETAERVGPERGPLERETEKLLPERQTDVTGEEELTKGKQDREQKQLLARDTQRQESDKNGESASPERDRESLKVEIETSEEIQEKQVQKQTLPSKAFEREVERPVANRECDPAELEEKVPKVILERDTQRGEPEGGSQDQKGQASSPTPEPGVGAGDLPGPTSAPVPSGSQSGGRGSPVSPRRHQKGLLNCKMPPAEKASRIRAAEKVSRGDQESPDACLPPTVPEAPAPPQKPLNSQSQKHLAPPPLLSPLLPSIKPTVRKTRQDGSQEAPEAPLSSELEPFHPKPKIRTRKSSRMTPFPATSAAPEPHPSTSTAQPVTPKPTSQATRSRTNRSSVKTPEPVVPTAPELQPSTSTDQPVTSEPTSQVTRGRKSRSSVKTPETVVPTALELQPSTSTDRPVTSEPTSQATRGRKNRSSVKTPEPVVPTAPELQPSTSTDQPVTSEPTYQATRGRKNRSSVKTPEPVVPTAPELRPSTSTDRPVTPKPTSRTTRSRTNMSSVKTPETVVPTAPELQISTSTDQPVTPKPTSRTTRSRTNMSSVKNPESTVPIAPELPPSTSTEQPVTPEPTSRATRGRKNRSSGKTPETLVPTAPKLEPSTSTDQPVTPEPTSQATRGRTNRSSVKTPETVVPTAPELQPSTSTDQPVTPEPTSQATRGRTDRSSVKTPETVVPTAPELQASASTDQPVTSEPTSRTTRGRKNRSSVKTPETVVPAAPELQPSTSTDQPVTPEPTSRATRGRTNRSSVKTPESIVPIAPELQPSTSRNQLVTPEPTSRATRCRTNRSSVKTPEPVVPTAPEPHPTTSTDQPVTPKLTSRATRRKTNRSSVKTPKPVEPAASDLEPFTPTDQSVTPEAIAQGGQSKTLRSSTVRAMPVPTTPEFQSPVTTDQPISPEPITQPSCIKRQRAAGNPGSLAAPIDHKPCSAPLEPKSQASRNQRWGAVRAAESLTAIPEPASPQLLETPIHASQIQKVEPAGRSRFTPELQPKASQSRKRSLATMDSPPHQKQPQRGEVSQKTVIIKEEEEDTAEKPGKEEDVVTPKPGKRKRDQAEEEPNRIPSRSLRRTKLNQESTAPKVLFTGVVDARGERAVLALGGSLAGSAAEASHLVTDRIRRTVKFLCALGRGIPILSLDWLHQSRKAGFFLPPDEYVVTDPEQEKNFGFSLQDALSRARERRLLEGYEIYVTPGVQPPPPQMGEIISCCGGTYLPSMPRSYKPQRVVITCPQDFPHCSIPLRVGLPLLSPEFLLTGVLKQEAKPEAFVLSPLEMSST
UniProt Q6UX53: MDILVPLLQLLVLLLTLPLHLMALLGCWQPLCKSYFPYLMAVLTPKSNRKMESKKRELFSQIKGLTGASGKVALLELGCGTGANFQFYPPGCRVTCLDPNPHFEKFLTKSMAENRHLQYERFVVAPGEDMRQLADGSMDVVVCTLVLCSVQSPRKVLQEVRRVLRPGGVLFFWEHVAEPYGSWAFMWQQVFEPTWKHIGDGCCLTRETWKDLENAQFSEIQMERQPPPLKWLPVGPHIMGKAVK

Each target was assayed with Cc1cc(ccc1-c1ccccc1)C(=O)N1CCCN(CC1)C(=O)CCl [compound 10] (assay: probe-labelled cysteine peptide fold change vs DMSO (competition) (log2 fold change); higher = less target engagement (more negative = stronger competition)). Settings: 50 µM; THP-1; incubation time: 4 h.
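Further: competitive profiling in live THP-1 cells: cysteine peptides tagged with an iodoacetamide desthiobiotin (IA-DTB) probe, intensity after compound treatment relative to DMSO-treated cells.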

Point of comparison: “MCMBP_Q9BTE3_636_CVNGNEL (UniProt Q9BTE3)”, “probe-labelled cysteine peptide fold change” value -0.488. Against it:
- MEFV_O15553_395_QVQLLFCEDHDEPICLICSLSQEHQGHR (UniProt O15553) — higher, 0.309
- MCM4_P33991_509_FRAEINILLCGDPGTSK (UniProt P33991) — higher, 0.0968
- MED23_Q9ULK4_1109_FNEFPNPAAHALHVTCVELMALAVSGK (UniProt Q9ULK4) — higher, 0.0934
- MCM4_P33991_572_QLVLQTGALVLSDNGICCIDEFDK (UniProt P33991) — higher, -0.025
- MCM3_P25205_319_AILCLLLGGVER (UniProt P25205) — higher, 0.0412
- MDN1_Q9NU22_3985_KFEAVLSEPCR (UniProt Q9NU22) — higher, -0.0822
- METTL13_Q8N6R0_39_AFEWYGTYLELCGVLHK (UniProt Q8N6R0) — higher, 0.124
- MED28_Q9H204_93_QTECFFLQK (UniProt Q9H204) — higher, -0.246
- MDN1_Q9NU22_2158_CLGEGGK (UniProt Q9NU22) — lower, -1.54
- MCM6_Q14566_351_NLYHNLCTSLFPTIHGNDEVK (UniProt Q14566) — higher, 0.276
- METAP1_P53582_194_SCCTSVNEVICHGIPDR (UniProt P53582) — higher, -0.176
- METAP2_P50579_448_NLCDLGIVDPYPPLCDIK (UniProt P50579) — higher, 0.133
- MGAT2_Q10469_378_IFHAGDCGMHHK (UniProt Q10469) — higher, -0.149
- METTL2B_Q6P1Q9_241_CFAFVHDLCDEEK (UniProt Q6P1Q9) — higher, 0.039
- MCM3_P25205_319_KAILCLLLGGVER (UniProt P25205) — lower, -0.712
- MCM5_P33992_355_AIACLLFGGSRK (UniProt P33992) — lower, -0.759
- MCM2_P49736_522_VRGDINVLLCGDPGTAK (UniProt P49736) — higher, -0.0303
- MELTF_P08582_545_CVGNSQER (UniProt P08582) — higher, 0.00114
- METTL3_Q86U44_336_YVHYEIDACMDSEAPGSK (UniProt Q86U44) — higher, 0.0106
- MDC1_Q14676_26_CNVEPVGR (UniProt Q14676) — higher, -0.341
- MDC1_Q14676_128_LRDQELILFADLLCQYHR (UniProt Q14676) — higher, 0.313
- MDN1_Q9NU22_3195_ELLCQLLTSLHHFVGEGESK (UniProt Q9NU22) — lower, -1.2
- MECR_Q9BV79_263_LALNCVGGK (UniProt Q9BV79) — higher, -0.178
- MDH2_P40926_285_SQETECTYFSTPLLLGKK (UniProt P40926) — lower, -0.586
- MDN1_Q9NU22_95_LCVSMSK (UniProt Q9NU22) — higher, -0.304
- METTL7B_Q6UX53_96_VTCLDPNPHFEK (UniProt Q6UX53) — higher, -0.269
- MEFV_O15553_773_NTAPLTICPVGGQGPD (UniProt O15553) — higher, 0.0511
- MEPCE_Q7L2J0_452_GRDVLDLGCNVGHLTLSIACK (UniProt Q7L2J0) — higher, 0.049
- MEFV_O15553_670_TAWILGACK (UniProt O15553) — higher, -0.302
- MCU_Q8NE86_97_CQFTLKPISDSVGVFLR (UniProt Q8NE86) — higher, -0.0818
- METAP2_P50579_468_GSYTAQFEHTILLRPTCK (UniProt P50579) — higher, 0.0676
- MCM5_P33992_355_KAIACLLFGGSR (UniProt P33992) — lower, -1.02
- MCM3_P25205_119+123+126_TLTSCFLSCVVCVEGIVTK (UniProt P25205) — lower, -1.13
- METTL7B_Q6UX53_79+92_VALLELGCGTGANFQFYPPGCR (UniProt Q6UX53) — higher, -0.146
- MCM7_P33993_482_CSILAAANPAYGR (UniProt P33993) — higher, -0.0325
- MCMBP_Q9BTE3_602_CLSLSAGQTTLSR (UniProt Q9BTE3) — higher, 0.0578
